Values of other authors in US12263180B2, “Method for treatment of COVID-19-associated conditions” (priority 2020, dated 2025).
For at least one compound, name, drawing or mass did not settle the structure.

Assays:
[1] = test system: COVID; conditions: compared to standard care; cited from earlier work
[2] = test system: Ebola virus; conditions: rhesus monkeys; cited from earlier work

SMILES | mortality from COVID [1] | efficacy against Ebola virus [2]
C[C@@H]1C[C@H]2[C@@H]3CCC4=CC(=O)C=C[C@]4(C)[C@@]3(F)[C@@H](O)C[C@]2(C)[C@@]1(O)C(=O)CO [Dexamethasone] | reduced mortality | 
CCC(CC)COC(=O)[C@H](C)N[P@](=O)(OC[C@H]1O[C@@](C#N)(c2ccc3c(N)ncnn23)[C@H](O)[C@@H]1O)Oc1ccccc1 [Remdesivir] |  | shown efficacy
